Results published in PMC7425433.

Target: T1, 17β-Hydroxysteroid dehydrogenase type 4 (HSD17B4), endogenous (human (endogenous in LNCaP)) (UniProt P51659)
T1 sequence: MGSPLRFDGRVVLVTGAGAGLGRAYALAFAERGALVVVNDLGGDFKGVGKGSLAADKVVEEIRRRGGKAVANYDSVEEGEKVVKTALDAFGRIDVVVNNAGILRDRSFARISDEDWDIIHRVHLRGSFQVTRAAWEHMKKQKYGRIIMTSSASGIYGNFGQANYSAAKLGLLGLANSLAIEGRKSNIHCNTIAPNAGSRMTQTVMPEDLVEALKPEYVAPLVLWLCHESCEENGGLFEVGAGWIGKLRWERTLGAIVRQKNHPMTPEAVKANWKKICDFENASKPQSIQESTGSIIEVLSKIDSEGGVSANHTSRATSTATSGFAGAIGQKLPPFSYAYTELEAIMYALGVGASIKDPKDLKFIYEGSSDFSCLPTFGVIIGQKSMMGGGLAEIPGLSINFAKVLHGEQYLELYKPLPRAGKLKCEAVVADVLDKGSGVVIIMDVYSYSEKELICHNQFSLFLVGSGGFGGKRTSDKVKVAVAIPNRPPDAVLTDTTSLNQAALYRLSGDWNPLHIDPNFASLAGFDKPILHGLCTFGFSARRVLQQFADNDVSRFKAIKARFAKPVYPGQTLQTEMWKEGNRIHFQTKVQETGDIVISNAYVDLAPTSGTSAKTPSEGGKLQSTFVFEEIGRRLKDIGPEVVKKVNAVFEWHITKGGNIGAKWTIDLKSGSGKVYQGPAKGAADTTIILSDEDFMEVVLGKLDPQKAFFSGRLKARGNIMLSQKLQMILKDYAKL
Experiment: co-IP; endogenous proteins from LNCaP lysate, detected by western blotting; cells cultured with or without DHT for 24 h (Figures 5C, 6F) or untreated (Figure 7D); lysis in 0.3% Nonidet P40, 150 mM NaCl, 50 mM Tris-HCl pH 7.5; which protein was precipitated is not told

binding: binds
Substance: SIRT3, endogenous (human (endogenous in LNCaP)) (enzyme)

Results are given in words; binding and its absence hold for the method and conditions named. Binding seen in cells or lysates may run through a third protein. Binding can be weak; no strength is given.
